The experiment has as its target T1, eIF2A (human, endogenous in HEK 293T cells) (human (endogenous in HEK 293T)) (UniProt Q9BY44).
T1 sequence: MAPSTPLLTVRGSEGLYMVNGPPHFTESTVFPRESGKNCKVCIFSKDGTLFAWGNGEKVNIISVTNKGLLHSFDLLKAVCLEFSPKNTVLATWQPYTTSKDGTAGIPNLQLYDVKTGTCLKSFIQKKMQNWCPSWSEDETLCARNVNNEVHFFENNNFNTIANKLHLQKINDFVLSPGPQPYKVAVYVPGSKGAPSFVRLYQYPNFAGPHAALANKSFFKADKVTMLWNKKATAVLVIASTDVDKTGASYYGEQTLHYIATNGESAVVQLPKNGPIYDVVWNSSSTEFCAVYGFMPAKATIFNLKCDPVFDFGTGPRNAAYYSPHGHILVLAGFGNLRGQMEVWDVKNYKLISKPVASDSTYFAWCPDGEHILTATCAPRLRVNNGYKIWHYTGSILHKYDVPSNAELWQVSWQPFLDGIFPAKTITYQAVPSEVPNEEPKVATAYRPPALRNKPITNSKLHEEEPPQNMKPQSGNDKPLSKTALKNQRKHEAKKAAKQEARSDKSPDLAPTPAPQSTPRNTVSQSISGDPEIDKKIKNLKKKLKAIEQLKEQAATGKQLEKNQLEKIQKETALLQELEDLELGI
As to the kind of experiment: co-IP.

The chains behind the UniProt entries cited, without tags or fusion partners.
UniProt Q13283: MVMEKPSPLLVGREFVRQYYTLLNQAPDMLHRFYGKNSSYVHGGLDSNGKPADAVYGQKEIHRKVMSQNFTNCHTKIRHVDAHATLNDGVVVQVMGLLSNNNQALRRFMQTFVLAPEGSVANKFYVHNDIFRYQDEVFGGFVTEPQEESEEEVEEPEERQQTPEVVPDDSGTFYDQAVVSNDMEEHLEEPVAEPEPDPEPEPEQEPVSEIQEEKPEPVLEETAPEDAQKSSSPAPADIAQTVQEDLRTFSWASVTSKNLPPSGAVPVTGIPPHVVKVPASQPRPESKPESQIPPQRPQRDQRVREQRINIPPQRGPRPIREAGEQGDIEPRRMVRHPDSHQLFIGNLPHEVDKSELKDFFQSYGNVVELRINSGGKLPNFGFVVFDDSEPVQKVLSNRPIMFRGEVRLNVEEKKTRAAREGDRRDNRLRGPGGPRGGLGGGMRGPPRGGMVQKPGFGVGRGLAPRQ

Results are given in words; binding and its absence hold for the method and conditions named. Binding seen in cells or lysates may run through a third protein. Some entries that bind do so weakly or less than the wild type.

Consider “G3BP1 (human, endogenous in HEK 293T cells) (from UniProt Q13283 1-466)”, for which the binding entry is “binds”.
